Results published in the supplement of paper PMC10849652.
The list shows a part of the results.

Protein sequences, listed by entry. Tags and fused reporters are not part of them. Lines headed by an entry give the natural chain unless they say otherwise; changes in a name come on top.
UniProt Q9ULM3: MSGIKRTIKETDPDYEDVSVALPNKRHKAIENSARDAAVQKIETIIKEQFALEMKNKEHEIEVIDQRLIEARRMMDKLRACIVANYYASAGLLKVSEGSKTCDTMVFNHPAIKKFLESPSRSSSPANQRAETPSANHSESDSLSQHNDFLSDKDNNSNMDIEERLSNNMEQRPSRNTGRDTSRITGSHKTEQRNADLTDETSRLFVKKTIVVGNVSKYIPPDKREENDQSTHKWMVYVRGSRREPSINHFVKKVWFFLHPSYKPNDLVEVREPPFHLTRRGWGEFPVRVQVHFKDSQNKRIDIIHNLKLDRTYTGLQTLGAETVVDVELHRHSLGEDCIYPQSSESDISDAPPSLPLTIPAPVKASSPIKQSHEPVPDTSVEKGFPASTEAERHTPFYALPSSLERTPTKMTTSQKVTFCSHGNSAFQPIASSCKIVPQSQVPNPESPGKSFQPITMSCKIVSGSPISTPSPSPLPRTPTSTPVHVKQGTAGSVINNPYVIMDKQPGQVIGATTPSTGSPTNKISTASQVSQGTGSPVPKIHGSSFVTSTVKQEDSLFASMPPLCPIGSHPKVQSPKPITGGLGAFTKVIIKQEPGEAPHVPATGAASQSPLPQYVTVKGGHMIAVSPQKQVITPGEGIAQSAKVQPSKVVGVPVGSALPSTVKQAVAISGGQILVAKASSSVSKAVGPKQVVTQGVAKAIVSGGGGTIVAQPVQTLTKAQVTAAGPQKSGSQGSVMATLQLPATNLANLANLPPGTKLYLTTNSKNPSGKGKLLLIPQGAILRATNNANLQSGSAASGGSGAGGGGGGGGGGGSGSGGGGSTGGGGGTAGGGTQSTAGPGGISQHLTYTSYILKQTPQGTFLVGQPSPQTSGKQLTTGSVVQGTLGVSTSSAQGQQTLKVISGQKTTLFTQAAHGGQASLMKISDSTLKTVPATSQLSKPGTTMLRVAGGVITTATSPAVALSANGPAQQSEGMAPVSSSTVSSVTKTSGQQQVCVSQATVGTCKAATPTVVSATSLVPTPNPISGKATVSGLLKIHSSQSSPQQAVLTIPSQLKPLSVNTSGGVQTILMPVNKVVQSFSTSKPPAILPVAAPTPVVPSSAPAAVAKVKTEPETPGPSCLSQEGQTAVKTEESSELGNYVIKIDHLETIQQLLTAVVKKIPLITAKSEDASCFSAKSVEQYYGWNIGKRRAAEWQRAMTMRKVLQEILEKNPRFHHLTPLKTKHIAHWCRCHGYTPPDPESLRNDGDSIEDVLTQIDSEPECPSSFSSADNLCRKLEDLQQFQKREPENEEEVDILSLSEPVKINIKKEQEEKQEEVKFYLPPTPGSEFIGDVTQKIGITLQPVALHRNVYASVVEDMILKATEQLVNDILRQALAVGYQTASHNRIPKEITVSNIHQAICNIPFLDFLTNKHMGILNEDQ
UniProt Q5TC79: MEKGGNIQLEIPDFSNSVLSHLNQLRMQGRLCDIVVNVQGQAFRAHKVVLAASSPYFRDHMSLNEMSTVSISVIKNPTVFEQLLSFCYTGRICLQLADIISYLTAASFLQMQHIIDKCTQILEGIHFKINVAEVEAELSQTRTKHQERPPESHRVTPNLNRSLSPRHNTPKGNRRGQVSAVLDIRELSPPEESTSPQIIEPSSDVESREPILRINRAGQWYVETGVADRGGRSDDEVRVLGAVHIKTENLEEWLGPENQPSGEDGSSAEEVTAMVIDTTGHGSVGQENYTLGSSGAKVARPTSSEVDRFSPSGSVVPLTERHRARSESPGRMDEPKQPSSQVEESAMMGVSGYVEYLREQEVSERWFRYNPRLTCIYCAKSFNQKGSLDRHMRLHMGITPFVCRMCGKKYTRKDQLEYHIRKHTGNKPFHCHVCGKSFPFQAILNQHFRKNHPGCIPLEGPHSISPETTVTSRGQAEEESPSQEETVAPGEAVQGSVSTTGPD
UniProt P10074: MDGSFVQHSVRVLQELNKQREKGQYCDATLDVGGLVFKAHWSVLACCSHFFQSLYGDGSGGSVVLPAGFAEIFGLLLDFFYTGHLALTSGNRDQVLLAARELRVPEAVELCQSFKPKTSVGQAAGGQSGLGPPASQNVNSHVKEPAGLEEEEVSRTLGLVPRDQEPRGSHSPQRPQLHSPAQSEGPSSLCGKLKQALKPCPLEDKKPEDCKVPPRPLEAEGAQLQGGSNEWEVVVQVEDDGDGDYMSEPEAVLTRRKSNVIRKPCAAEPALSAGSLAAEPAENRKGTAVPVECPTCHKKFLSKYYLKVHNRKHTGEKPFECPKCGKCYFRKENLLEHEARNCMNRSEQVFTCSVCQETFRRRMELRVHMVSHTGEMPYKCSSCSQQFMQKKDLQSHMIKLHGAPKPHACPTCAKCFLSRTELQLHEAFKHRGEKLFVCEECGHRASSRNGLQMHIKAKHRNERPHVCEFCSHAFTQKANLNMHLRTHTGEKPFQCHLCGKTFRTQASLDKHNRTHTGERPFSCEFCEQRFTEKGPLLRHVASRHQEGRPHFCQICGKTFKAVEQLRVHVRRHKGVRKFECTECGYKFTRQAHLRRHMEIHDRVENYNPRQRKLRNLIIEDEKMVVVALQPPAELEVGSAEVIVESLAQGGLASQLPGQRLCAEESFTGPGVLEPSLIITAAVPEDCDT
UniProt Q96GR4: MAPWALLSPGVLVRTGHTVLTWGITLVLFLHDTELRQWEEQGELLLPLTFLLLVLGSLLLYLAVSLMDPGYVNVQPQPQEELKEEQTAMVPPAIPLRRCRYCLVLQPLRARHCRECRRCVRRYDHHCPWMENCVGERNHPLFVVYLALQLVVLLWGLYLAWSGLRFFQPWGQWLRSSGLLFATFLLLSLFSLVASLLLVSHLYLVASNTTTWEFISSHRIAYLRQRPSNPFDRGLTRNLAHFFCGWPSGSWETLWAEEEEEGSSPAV
UniProt O75132: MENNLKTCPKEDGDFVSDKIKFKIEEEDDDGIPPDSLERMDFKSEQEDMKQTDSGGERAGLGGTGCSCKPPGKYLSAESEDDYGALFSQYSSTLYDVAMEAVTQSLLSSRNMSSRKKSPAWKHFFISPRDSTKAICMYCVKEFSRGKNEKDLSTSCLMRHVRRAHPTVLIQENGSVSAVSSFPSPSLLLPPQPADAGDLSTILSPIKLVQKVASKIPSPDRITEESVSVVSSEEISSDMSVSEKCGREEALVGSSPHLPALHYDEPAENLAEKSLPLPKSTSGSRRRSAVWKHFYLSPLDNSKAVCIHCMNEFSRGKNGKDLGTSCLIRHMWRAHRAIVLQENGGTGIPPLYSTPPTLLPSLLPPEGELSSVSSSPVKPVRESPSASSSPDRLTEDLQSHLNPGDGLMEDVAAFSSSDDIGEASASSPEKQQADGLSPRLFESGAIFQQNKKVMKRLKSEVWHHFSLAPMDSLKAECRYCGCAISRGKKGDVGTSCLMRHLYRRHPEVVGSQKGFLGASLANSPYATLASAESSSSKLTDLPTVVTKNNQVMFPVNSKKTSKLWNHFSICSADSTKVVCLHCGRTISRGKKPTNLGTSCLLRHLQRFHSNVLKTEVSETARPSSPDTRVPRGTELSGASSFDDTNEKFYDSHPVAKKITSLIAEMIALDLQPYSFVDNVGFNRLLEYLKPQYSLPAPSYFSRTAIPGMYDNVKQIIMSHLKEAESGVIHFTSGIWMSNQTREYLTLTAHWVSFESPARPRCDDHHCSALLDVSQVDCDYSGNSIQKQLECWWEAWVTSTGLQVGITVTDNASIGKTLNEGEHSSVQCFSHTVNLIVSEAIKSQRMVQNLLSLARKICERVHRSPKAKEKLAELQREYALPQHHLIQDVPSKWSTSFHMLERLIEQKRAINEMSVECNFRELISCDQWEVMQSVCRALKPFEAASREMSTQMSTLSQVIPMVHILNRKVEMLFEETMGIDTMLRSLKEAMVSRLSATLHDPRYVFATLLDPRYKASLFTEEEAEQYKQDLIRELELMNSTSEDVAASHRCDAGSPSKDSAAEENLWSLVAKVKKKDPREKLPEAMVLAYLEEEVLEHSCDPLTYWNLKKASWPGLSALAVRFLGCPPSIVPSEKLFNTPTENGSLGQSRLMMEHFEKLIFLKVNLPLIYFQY
UniProt Q96K80: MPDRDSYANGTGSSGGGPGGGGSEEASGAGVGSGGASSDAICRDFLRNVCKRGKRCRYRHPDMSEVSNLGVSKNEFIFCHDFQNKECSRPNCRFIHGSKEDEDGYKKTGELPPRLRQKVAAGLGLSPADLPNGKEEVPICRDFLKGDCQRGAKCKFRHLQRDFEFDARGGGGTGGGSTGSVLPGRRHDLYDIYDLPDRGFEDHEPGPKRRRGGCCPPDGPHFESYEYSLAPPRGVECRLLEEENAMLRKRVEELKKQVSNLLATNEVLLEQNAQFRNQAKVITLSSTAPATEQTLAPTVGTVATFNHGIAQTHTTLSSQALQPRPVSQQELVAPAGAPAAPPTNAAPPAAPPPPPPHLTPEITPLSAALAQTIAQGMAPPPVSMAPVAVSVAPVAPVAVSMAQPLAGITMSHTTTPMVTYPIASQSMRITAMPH
UniProt Q9NQZ6: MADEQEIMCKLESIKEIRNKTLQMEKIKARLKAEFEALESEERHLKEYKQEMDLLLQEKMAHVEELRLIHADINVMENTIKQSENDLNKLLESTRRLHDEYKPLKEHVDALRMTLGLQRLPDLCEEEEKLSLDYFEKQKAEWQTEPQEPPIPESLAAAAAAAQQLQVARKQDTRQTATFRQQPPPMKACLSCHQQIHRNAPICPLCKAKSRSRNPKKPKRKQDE

Legend:
Test in all cases: log2 fold change, soluble protein after heating vs DMSO (PISA); higher = thermal stabilisation; K562 lysate, 10 uM; active = over 0.2 and 3.5 SD of the protein, either way, in both replicates (recomputed)
Tubastatin A = compound: CN1CCc2c(c3ccccc3n2Cc2ccc(C(=O)NO)cc2)C1 [Tubastatin A]
Procedure, shortened: (§1)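 Log-two fold change in thermal stability relative to solvent controls is reported from duplicates. For each sample, crude K562 extract from dounce-homogenised pellets in PBS pH 7.4 with 1 mM MgCl2, at 1 mg/mL protein, was treated with 10 μM compound for 30 min. Aliquots heated for 3 min across 48°C-58°C were pooled, brought to 0.5% NP-40 at 4°C and cleared at 21,000xg for 90 min. The supernatant was quantified by TMTpro 16plex LC-MS/MS with channel sums equalised.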

[1] = compound: CNC(=O)C1=CC=CC=C1NC2=NC(=NC=C2Cl)NC3=C(C=C(C=C3)N4CCOCC4)OC
Procedure, shortened: as §1

defactinib = compound: CNC(=O)c1ccc(Nc2ncc(C(F)(F)F)c(NCc3nccnc3N(C)S(C)(=O)=O)n2)cc1 [defactinib]
Procedure, shortened: as §1

encorafenib = compound: COC(=O)N[C@@H](C)CNc1nccc(-c2cn(C(C)C)nc2-c2cc(Cl)cc(NS(C)(=O)=O)c2F)n1 [encorafenib]
Procedure, shortened: as §1

[2] = compound: COC(=O)[C@H](CCSC)NC(=O)C1=C(C=C(C=C1)NC[C@H](CS)N)C2=CC=CC=C2
Procedure, shortened: as §1

alisertib = compound: COc1cc(Nc2ncc3c(n2)-c2ccc(Cl)cc2C(c2c(F)cccc2OC)=NC3)ccc1C(=O)O [alisertib]
Procedure, shortened: as §1

[3] = compound: COc1cc2nc(-c3cc(F)ccc3O)nc(N[C@@H]3CNC[C@H]3C(C)(C)O)c2cc1OC
Procedure, shortened: as §1

gefitinib = compound: COc1cc2ncnc(Nc3ccc(F)c(Cl)c3)c2cc1OCCCN1CCOCC1 [gefitinib]
Procedure, shortened: as §1

lapatinib = compound: CS(=O)(=O)CCNCc1ccc(-c2ccc3ncnc(Nc4ccc(OCc5cccc(F)c5)c(Cl)c4)c3c2)o1 [lapatinib]
Procedure, shortened: as §1

pictilisib = compound: CS(=O)(=O)N1CCN(Cc2cc3nc(-c4cccc5[nH]ncc45)nc(N4CCOCC4)c3s2)CC1 [pictilisib]
Procedure, shortened: as §1

crizotinib = compound: C[C@@H](Oc1cc(-c2cnn(C3CCNCC3)c2)cnc1N)c1c(Cl)ccc(F)c1Cl [crizotinib]
Procedure, shortened: as §1

tozasertib = compound: Cc1cc(Nc2cc(N3CCN(C)CC3)nc(Sc3ccc(NC(=O)C4CC4)cc3)n2)n[nH]1 [tozasertib]
Procedure, shortened: as §1

doramapimod = compound: Cc1ccc(-n2nc(C(C)(C)C)cc2NC(=O)Nc2ccc(OCCN3CCOCC3)c3ccccc23)cc1 [doramapimod]
Procedure, shortened: as §1

bafetinib = compound: Cc1ccc(NC(=O)c2ccc(CN3CC[C@H](N(C)C)C3)c(C(F)(F)F)c2)cc1Nc1nccc(-c2cncnc2)n1 [bafetinib]
Procedure, shortened: as §1

[4] = compound: CNc1nc(-c2ccc3c(N)n[nH]c3c2)cc(N2C[C@@H](C(=O)NC3CCCCC3)CC[C@H]2C)n1
Procedure, shortened: as §1

duvelisib = compound: C[C@H](Nc1ncnc2nc[nH]c12)c1cc2cccc(Cl)c2c(=O)n1-c1ccccc1 [duvelisib]
Procedure, shortened: as §1

Measured: log2 fold change

YEATS2 (UniProt Q9ULM3)
inactive: Tubastatin A -0.291 | [1] -0.087 | defactinib -0.117 | encorafenib 0.054 | [2] 0.081 | alisertib -0.166 | [3] 0.069 | gefitinib 0.046 | lapatinib -0.093 | pictilisib -0.126 | crizotinib -0.029 | tozasertib -0.125 | doramapimod 0.035 | bafetinib -0.248

ZBTB37 (UniProt Q5TC79)
inactive: Tubastatin A 0.063 | crizotinib -0.03 | doramapimod 0

ZBTB48 (UniProt P10074)
inactive: defactinib -0.018 | [4] 0.067 | duvelisib -0.029

ZFHX4 isoform 5 (UniProt Q86UP3)
inactive: Tubastatin A -0.266 | [1] 0.037 | alisertib -0.142 | [3] -0.124 | gefitinib 0.023 | lapatinib -0.376 | pictilisib 0.072 | crizotinib -0.001 | doramapimod -0.281 | bafetinib -0.111

ZDHHC12 isoform 3 (UniProt Q96GR4)
inactive: crizotinib -0.066 | doramapimod 0.035

YWHAZ (UniProt E7EX29)
inactive: encorafenib 0.07 | [2] 0.019 | [3] 0.069 | lapatinib 0.251 | pictilisib -0.124 | tozasertib 0 | bafetinib 0.215

ZFYVE26 (UniProt Q68DK2)
inactive: Tubastatin A 0.009 | [1] -0.001 | defactinib 0.087 | alisertib 0.02 | [3] 0.043 | gefitinib 0.026 | lapatinib -0.246 | pictilisib -0.189 | crizotinib -0.413 | doramapimod -0.036 | bafetinib -0.035

ZBED4 (UniProt O75132)
inactive: defactinib -0.141

ZC3H10 (UniProt Q96K80)
inactive: [4] 0.032 | pictilisib -0.038 | crizotinib -0.152 | duvelisib 0.078 | doramapimod 0.231 | bafetinib -0.007

ZC4H2 (UniProt Q9NQZ6)
inactive: crizotinib 0.065 | doramapimod -0.054
